According to article PMC12413633:

Molecular target: Microtubule-associated protein 2 (MAP2) with the phosphomimetic mutation S1782E, mouse (mouse (endogenous in cerebral cortex))
Assay: affinity purification with mass spectrometry; MAP2 precipitated from cerebral cortex lysate of MAP2 WT or S1782E+/- mice (N = 8 per group) with HM-2 antibody on Dynabeads; no-antibody beads as control; washed with PBS; LC-MS/MS; SAINTq, BFDR <= 0.05

| Binder | binding |
| --- | --- |
| Klhl8, Kelch Like Family Member 8, mouse (protein, UniProt P59280 1-629) MASESTNGKQARSHVTKGRRQYQHQHQQQQQQQQQVRSRSSVSECDGDDSFIFEANEAWKDFHGSLLGFYENGELCDVTLKVGSKLISCHKLVLACVIPYFRAMFLSEMSEAKQALIEIRDFDGDAVEDLVKFVYSSRLTLTVDNVQPLLYAACILQVELVARACCEYMQLHFHPSNCLAVRAFAESHNRIDLMDMADQYACEHFTEVVECEDFVSVSPQHLHKLLSSSDLNIDSEKQVYSAAIKWLLANPQHHPKWLDETLAQVRLPLLPVDFLMGVVAKEQIVKQNLKCRDLLDEARNYHLHLSSKPVPDFEYTVRTTPRKHTAGVLFCVGGRGGSGDPFRSIECYSINKNSWFFGPEMNSRRRHVGVISVEGKVYAVGGHDGNEHLGSMEMFDPLTNKWMMKASMNTKRRGIALASLGGPIYAIGGLDDNTCFSDVERYDIESDQWSTVAPMNTPRGGVGSVALINHVYAVGGNDGVASLSSVERYHPHLDKWIEVKEMGQRRAGNGVSELHGCLYVVGGFDDNSPLSSVERYDPRSNKWDYVAALTTPRGGVGIATVMGKIFAVGGHNGNAYLNTVEAFDPVLNKWELVGPVSHCRAGAGVAVCDCLTSQIRDVGHGSTNVVDCM | binds |
| Nid1 (protein, UniProt P10493 29-1245) LNRQELFPFGPGQGDLELEAGDDVVSPSLELIGELSFYDRTDITSVYVTTNGIIAMSEPPATEYHPGTFPPSFGSVAPFLADLDTTDGLGNVYYREDLSPFIIQMAAEYVQRGFPEVSFQPTSVVVVTWESVAPYGGPSSSPAEEGKRNTFQAVLASSNSSSYAIFLYPEDGLQFFTTFSKKDESQVPAVVGFSKGLVGFLWKSNGAYNIFANDRESIENLAKSSNAGHQGVWVFEIGSPATAKGVVSADVNLDLDDDGADYEDEDYDLVTSHLGLEDVATPSPSHSPRRGYPDPHNVPRILSPGYEATERPRGVPTERTRSFQLPAERFPQHHPQVIDVDEVEETGVVFSYNTGSQQTCANNRHQCSVHAECRDYATGFCCRCVANYTGNGRQCVAEGSPQRVNGKVKGRIFVGSSQVPVVFENTDLHSYVVMNHGRSYTAISTIPETVGYSLLPLAPIGGIIGWMFAVEQDGFKNGFSITGGEFTRQAEVTFLGHPGKLVLKQQFSGIDEHGHLTISTELEGRVPQIPYGASVHIEPYTELYHYSSSVITSSSTREYTVMEPDQDGAAPSHTHIYQWRQTITFQECAHDDARPALPSTQQLSVDSVFVLYNKEERILRYALSNSIGPVRDGSPDALQNPCYIGTHGCDSNAACRPGPGTQFTCECSIGFRGDGQTCYDIDECSEQPSRCGNHAVCNNLPGTFRCECVEGYHFSDRGTCVAAEDQRPINYCETGLHNCDIPQRAQCIYMGGSSYTCSCLPGFSGDGRACRDVDECQHSRCHPDAFCYNTPGSFTCQCKPGYQGDGFRCMPGEVSKTRCQLEREHILGAAGGADAQRPTLQGMFVPQCDEYGHYVPTQCHHSTGYCWCVDRDGRELEGSRTPPGMRPPCLSTVAPPIHQGPVVPTAVIPLPPGTHLLFAQTGKIERLPLERNTMKKTEAKAFLHIPAKVIIGLAFDCVDKVVYWTDISEPSIGRASLHGGEPTTIIRQDLGSPEGIALDHLGRTIFWTDSQLDRIEVAKMDGTQRRVLFDTGLVNPRGIVTDPVRGNLYWTDWNRDNPKIETSHMDGTNRRILAQDNLGLPNGLTFDAFSSQLCWVDAGTHRAECLNPAQPGRRKVLEGLQYPFAVTSYGKNLYYTDWKTNSVIAMDLAISKEMDTFHPHKQTRLYGITIALSQCPQGHNYCSVNNGGCTHLCLPTPGSRTCRCPDNTLGVDCIERK | binds |

Next, values leading:

| binding | Binder |
| --- | --- |
| binds | Tmprss15 (protein, UniProt P97435 1-1069) MKSSRDEAVGHHSISSFEVMLSALFIMLMVFSIGLIAVSWLAVKESEGDAALGKSHEVRGTFKITSGVTYNPNLQDKHSVDFKVLAFDLQQMIDEIFESSSLKNEYEKSKVFQFEKGSVIVLFDLFFAQWVSDKNVKEELIQGIEANISSQLVTLHIDLNSIDITASLSDFTTAVPVTTSDKLTTSSPMTTSASLGNLSTTVAATTSAPLCNLSTATFATTSGHVSIECQPGSRPCAHAWNCVATDLFCDGEVNCPDGSDEDTGLCATACDGRFLLTGDSGVFQADRYPRPDESGVVCRWIIRVNQGLSIRMNFGSFIPHYTDVLDIYEGIGPSKILRGSFWETDPGTIRIFSNLVTVTFLIKSDEYDYIGFNATYSTFNNSELNNYEKIDCTFDDGFCFWTQDLDDDNEWERIQVTTFPCYTGPRFDHTYGNGSGFYISTPTEQGWRSERVGLSSLSLDLTSEPVCLHFWYYMCCENVYNLNIHISSAETTDKIVFQRKGNYGRNWNYGQVTLNETGEFKVVFNAFRNRGCSTIALDDISLTNGICSQSPYPEPTLVPTPPPELPTDCGGPFELWEPNSTFSSPNFPDKYPNQASCIWNLNAQRGKNIQLHFQEFDLENINDVVEVRDGGEFDSLLLAVYTGPGPVKDLFSTTNRMTVIFTTNMETRRKGFKANFTSGYYLGIPEPCQDDEFQCKDGNCIPLGNLCDSYPHCRDGSDEASCVRFLNGTRSNNGLVQFNIHSIWHIACAENWTTQISNEVCHLLGLGSANSSMPISSTGGGPFVRVNQAPNGSLILTPSLQCSQDSLILLQCNHKSCGEKKVTQKVSPKIVGGSDAQAGAWPWVVALYHRDRSTDRLLCGASLVSSDWLVSAAHCVYRRNLDPTRWTAVLGLHMQSNLTSPQVVRRVVDQIVINPHYDRRRKVNDIAMMHLEFKVNYTDYIQPICLPEENQIFIPGRTCSIAGWGYDKINAGSTVDVLKEADVPLISNEKCQQQLPEYNITESMICAGYEEGGIDSCQGDSGGPLMCQENNRWFLVGVTSFGVQCALPNHPGVYVRVSQFIEWIHSFLH |
| binds | Ppm1l (Protein Phosphatase, Mg2+/Mn2+ Dependent 1 L), mouse (enzyme, UniProt Q8BHN0 1-360) MIEDTMTLLSLLGRIMRYFLLRPETLFLLCISLALWSYFFHTDEVKTIVKSSRDAVKMVKGKVAEIMQNDRLGGLDVLEAEFSKTWEFKSHNVAVYSIQGRRDHMEDRFEVLTDLANKTHPSIFGIFDGHGGETAAEYVKSRLPEALKQHLQDYEKDKENSVLTYQTILEQQILSIDREMLEKLTVSYDEAGTTCLIALLSDKDLTVANVGDSRGVLCDKDGNAIPLSHDHKPYQLKERKRIKRAGGFISFNGSWRVQGILAMSRSLGDYPLKNLNVVIPDPDILTFDLDKLQPEFMILASDGLWDAFSNEEAVRFIKERLDEPHFGAKSIVLQSFYRGCPDNITVMVVKFRNSSKTEEH |

Results are given in words; binding and its absence hold for the method and conditions named. In cells and extracts the contact can be indirect. A yes stands for co-enrichment or nearness to the bait. Other partners may have been found.
